Read-outs that look alike come from different tables or passages of the source. Results are given in words; binding and its absence hold for the method and conditions named.

Protein sequences, listed by entry. Tags and fused reporters are not part of them. Lines headed by an entry give the natural chain unless they say otherwise; changes in a name come on top.
UniProt Q8IL11, whole entry, looked up, stated change not applied: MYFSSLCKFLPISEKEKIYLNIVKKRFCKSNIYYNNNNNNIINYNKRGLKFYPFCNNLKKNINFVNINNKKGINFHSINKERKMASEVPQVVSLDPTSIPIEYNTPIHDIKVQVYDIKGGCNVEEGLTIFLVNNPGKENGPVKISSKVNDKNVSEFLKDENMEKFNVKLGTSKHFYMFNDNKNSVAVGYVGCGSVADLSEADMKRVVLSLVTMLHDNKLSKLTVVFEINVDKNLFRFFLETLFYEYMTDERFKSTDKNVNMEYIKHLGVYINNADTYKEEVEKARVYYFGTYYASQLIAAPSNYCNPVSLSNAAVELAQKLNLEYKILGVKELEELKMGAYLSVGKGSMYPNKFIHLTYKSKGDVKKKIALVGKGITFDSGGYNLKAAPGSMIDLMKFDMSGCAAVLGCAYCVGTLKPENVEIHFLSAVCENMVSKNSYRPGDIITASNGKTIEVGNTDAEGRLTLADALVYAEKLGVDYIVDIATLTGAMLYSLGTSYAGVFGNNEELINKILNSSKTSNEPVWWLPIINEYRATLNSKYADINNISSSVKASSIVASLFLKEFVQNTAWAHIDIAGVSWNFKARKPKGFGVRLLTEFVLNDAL

Consider one substance from article doi:10.1101/2020.10.08.331538 (bioRxiv, 2020).

The target of assay [1] is PfA-M17 (W525A + Y533A) (Plasmodium falciparum) (UniProt Q8IL11). The assay can be described thus: AUC.
Assay [2] has the same target. The experiment in a line: AUC. The source holds these as a separate data set.

Turning to “PfA-M17 (W525A + Y533A) (from UniProt Q8IL11 84-605) (enzyme)”, the binding entry in assay [1] was “no binding (tested: 0.5 mg/mL)”; in assay [2] it was “no binding (tested: 8.3 µM and 4.2 µM)”.
